Experimental findings from the supplement of paper PMC3682954 are described below.

Counter-ions that a name gives are not always drawn. ± gives the standard deviation of the averaged measurements. The list shows a part of the results. Many values rest on one well or one pass, so single values are uncertain.

For this experiment, the system named is RAW 264.7. The experiment can be described thus: HMGB1-induced TNF-alpha production relative to HMGB1-stimulated control; higher = more TNF-alpha secretion (less inhibition). Conditions: stimulus: HMGB1 5 ug/ml, 18 h.
Setting [1] is: compound concentration: 1 ug/ml.

For the compound `NC(N)=Nc1nc(CSCC/C(N)=N/S(N)(=O)=O)cs1`, the “HMGB1-induced TNF-alpha production” value (compound concentration: 3 uM) worked out at 106 ± 12%.
The same measure, in the same setting: as for `NC(N)=Nc1nc(CSCC/C(N)=N/S(N)(=O)=O)cs1` [Famotidine], the figure is 78.8 ± 5.9%.
`Cc1cc(=O)oc2ccc(O)cc12` [6-Hydroxy-4-methyl-2-benzopyrone]: the “HMGB1-induced TNF-alpha production” value under setting [1] stood at 60.8%.
As for `Cc1cc(-c2ccccc2)nnc1NCCN1CCOCC1` [Minaprine dihydrochloride], the “HMGB1-induced TNF-alpha production” value (compound concentration: 3 uM) was 71.1%.
Same read-out and setting: as for `Cc1cc(-c2ccccc2)nnc1NCCN1CCOCC1`, the figure is 96.1%; as for `Nc1ccc(CCNc2ncnc3c2ncn3C2OC(CO)C(O)C2O)cc1` (centres undefined) [N6-2-(4-Aminophenyl)ethyladenosine], 87.3%.
On to `COc1cc(-c2cc(=O)c3c(O)c(OC)c(OC4OC(COC5OC(C)C(O)C(O)C5O)C(O)C(O)C4O)cc3o2)ccc1O` (centres undefined) [Demethoxycentaureidin 7-O-rutinoside], for which the “HMGB1-induced TNF-alpha production” value under setting [1] was determined as 78.4%.
The same measure, in the same setting: then `CN(C)[C@@H]1C(O)=C(C(N)=O)C(=O)[C@@]2(O)C(O)=C3C(=O)c4c(O)cccc4[C@@](C)(O)[C@H]3[C@H](O)[C@@H]12` [Oxytetracycline hydrochloride], with 67.1%.
With `CN(C)[C@@H]1C(O)=C(C(N)=O)C(=O)[C@@]2(O)C(O)=C3C(=O)c4c(O)cccc4[C@@](C)(O)[C@H]3[C@H](O)[C@@H]12` [Oxytetracycline dihydrate], for the setting “compound concentration: 3 uM”, the “HMGB1-induced TNF-alpha production” value is 70.2%.
The same measure, in the same setting: as for `CN(C)[C@@H]1C(O)=C(C(N)=O)C(=O)[C@@]2(O)C(O)=C3C(=O)c4c(O)cccc4[C@@](C)(O)[C@H]3[C@H](O)[C@@H]12`, the figure is 93.3%; as for `OC(CN1CCN(c2cccc(Cl)c2)CC1)C(c1ccccc1)c1ccccc1` (centres undefined), 69.7%.
Same read-out and setting: as for `C#CCn1c(=O)c2c(ncn2C)n(C)c1=O` [3,7-Dimethyl-1-propargylxanthine], the figure is 84%.
As to `CC(=O)OCC(=O)[C@H]1CC[C@H]2[C@@H]3CCC4=CC(=O)CC[C@]4(C)[C@H]3CC[C@]12C`, the “HMGB1-induced TNF-alpha production” value (compound concentration: 3 uM) was found to be 59%.
On to `CC(=O)OCC(=O)[C@H]1CC[C@H]2[C@@H]3CCC4=CC(=O)CC[C@]4(C)[C@H]3CC[C@]12C` [deoxycorticosterone acetate], for which the “HMGB1-induced TNF-alpha production” value under setting [1] is 57%.
In the case of `N#C/C(=C\c1ccc(O)c(O)c1)C(=O)NCc1ccccc1` [Tyrphostin AG 490], the “HMGB1-induced TNF-alpha production” value (compound concentration: 3 uM) is 121%.
For `N[C@@H](Cc1ccc(Cl)cc1)C(=O)O` [L-4-Chlorophenylalanine], the “HMGB1-induced TNF-alpha production” value under setting [1] is 73.3%.
As to `N=C(N)NCCN1CCCCCCC1` [Guanethidine sulfate], under “compound concentration: 3 uM”, the “HMGB1-induced TNF-alpha production” value was found to be 93.2%.
For `N=C(N)NCCN1CCCCCCC1`, the “HMGB1-induced TNF-alpha production” value (compound concentration: 3 uM) was determined as 88.3%.
The same measure, in the same setting: then `C#C[C@]1(O)CC[C@H]2[C@@H]3CCC4=CC(=O)CC[C@@H]4[C@H]3CC[C@@]21CC`, with 107%.
On the same count and under the same terms, then `C#C[C@]1(O)CC[C@H]2[C@@H]3CCC4=CC(=O)CC[C@@H]4[C@H]3CC[C@@]21CC` [Norgestrel-(-)-D], with 90.6%; and `C#C[C@]1(O)CC[C@H]2[C@@H]3CCC4=CC(=O)CC[C@@H]4[C@H]3CC[C@@]21CC` [Levonorgestrel], with 104%.
With `CC(CN(C)C)CN1c2ccccc2Sc2ccccc21` (centres undefined) [Trimeprazine tartrate], under “compound concentration: 3 uM”, the “HMGB1-induced TNF-alpha production” value was found to be 113%.
The same measure, in the same setting: then `CC(CN(C)C)CN1c2ccccc2Sc2ccccc21` (centres undefined), with 82.6%; and `CC1(C)[C@@H](OC(=O)CCC(=O)O)CC[C@]2(C)[C@H]3C(=O)C=C4[C@@H]5C[C@@](C)(C(=O)O)CC[C@]5(C)CC[C@@]4(C)[C@]3(C)CC[C@@H]12`, with 75.8%; and `CC1(C)[C@@H](OC(=O)CCC(=O)O)CC[C@]2(C)[C@H]3C(=O)C=C4[C@@H]5C[C@@](C)(C(=O)O)CC[C@]5(C)CC[C@@]4(C)[C@]3(C)CC[C@@H]12` [Carbenoxolone disodium salt], with 95.1%.
With `CC(=O)O[C@H]1CC[C@@]2(C)C(=CC[C@H]3[C@@H]4CC[C@H](C(C)=O)[C@@]4(C)CC[C@@H]32)C1` [Pregnenolone acetate], the “HMGB1-induced TNF-alpha production” value under setting [1] is 63.8%.
`C=CCOC(Cn1ccnc1)c1ccc(Cl)cc1Cl` (centres undefined) [Enilconazole]: the “HMGB1-induced TNF-alpha production” value (compound concentration: 3 uM) is 95.8%.
Still for that read-out and setting: as for `C=CCOC(Cn1ccnc1)c1ccc(Cl)cc1Cl` (centres undefined), the figure is 87.2%.
`COc1ccc2c(=O)cc(-c3ccccc3)oc2c1O`: the “HMGB1-induced TNF-alpha production” value under setting [1] was found to be 46.2%.
On to `O=C(/C=C/c1ccc(O)c(O)c1)O[C@@H]1C[C@](O)(C(=O)O)C[C@@H](O)[C@H]1O` [Chlorogenic Acid], for which, under setting [1], the “HMGB1-induced TNF-alpha production” value turned out to be 57.8%.
In the case of `CN(C)CCC(c1ccc(Br)cc1)c1ccccn1` (single isomer, unassigned; (+)) [(+)-Brompheniramine maleate], where the note is “compound concentration: 3 uM”, the “HMGB1-induced TNF-alpha production” value was determined as 101%.
As for `CC[C@@H](CO)NCCN[C@@H](CC)CO`, for the setting “compound concentration: 3 uM”, the “HMGB1-induced TNF-alpha production” value stood at 84.5%.
Still for that read-out and setting: then `CC[C@@H](CO)NCCN[C@@H](CC)CO` [Ethambutol dihydrochloride], with 77.1%.
Still for that read-out and setting: as for `CC(CN(C)C)C(C)(O)Cc1ccc(Cl)cc1` (centres undefined) [Clobutinol hydrochloride], the figure is 56.3%.
With `O=c1cc(-c2ccccc2)oc2c1ccc1ccccc12` [7,8-Benzoflavone; alpha-Naphthoflavone], the “HMGB1-induced TNF-alpha production” value under setting [1] amounted to 54.7%.
As to `C[C@]1(Cn2ccnn2)[C@H](C(=O)O)N2C(=O)C[C@H]2S1(=O)=O` [Tazobactam], where the note is “compound concentration: 3 uM”, the “HMGB1-induced TNF-alpha production” value is 87%.
Still for that read-out and setting: as for `CC(=O)OCC(=O)[C@@]1(OC(C)=O)[C@@H](C)C[C@H]2[C@@H]3C[C@H](F)C4=CC(=O)C=C[C@]4(C)[C@@]3(F)[C@@H](O)C[C@@]21C` [Diflorasone Diacetate], the figure is 49.3%.
On to `CCCCC/C=C\C/C=C\C/C=C\C/C=C\CCCC(=O)O` [Arachidonic acid], for which the “HMGB1-induced TNF-alpha production” value under setting [1] amounted to 75%.
For the compound `COc1cc(OC)c(C(=O)/C=C/c2ccc(O)c(OC)c2)c(OC)c1` [4-Hydroxy-2',3,4',6'-tetramethoxychalcone], the “HMGB1-induced TNF-alpha production” value under setting [1] came out at 78.8%.
